From the supplement of paper PMC12889115
The list shows a part of the results. These are raw signals, not scaled to a control.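 Primary screen: polymyxin B was added at a level permeabilizing Salmonella outer membranes while sparing inner membranes. DMSO wells, both with and without polymyxin B, established maximum growth. Plate-to-plate variation meant each plate was ranked on its own, and the lowest-OD600 compounds were selected as hits.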

Tested on: Salmonella enterica serovar Typhimurium SL1344
Experiment: bacterial growth OD600 after 18 h with compound and polymyxin B; higher = more bacterial growth (less inhibition)
Settings: 50 µM, Mueller-Hinton broth

## COc1cccc(C(C)N(C)Cc2nc(-c3cccc(Cl)c3)oc2C)c1 (stereo not drawn)
Polymyxin B 1 µg/mL
  bacterial growth OD600: 0.515

## CSCCNC1CCN(c2ccc(NC(=O)c3ccc(C)cc3C)cc2)CC1
Polymyxin B 0.75 µg/mL
  bacterial growth OD600: 0.866

## Cc1nc(C)c(CC(=O)N2CCOc3ccc(CN4CCN(c5ccc(F)cc5)CC4)cc3C2)s1
Polymyxin B 0.75 µg/mL
  bacterial growth OD600: 0.793

## O=C(C1CC1)N1CCCC(Nc2ccc(F)c(F)c2)C1 (stereo not drawn)
Polymyxin B 1 µg/mL
  bacterial growth OD600: 0.801

## CSCCCNC(=O)c1cn(Cc2ccccc2F)nn1
Polymyxin B 1 µg/mL
  bacterial growth OD600: 0.94

## Cc1nc(N2CCC(C(=O)N3CCN(c4cnccn4)CC3)CC2)nc2ccc(C(C)C)cc12
Polymyxin B 0.75 µg/mL
  bacterial growth OD600: 0.742

## c1ccc(Cn2cc(CN3CCSCC3)c(-c3ccc4c(c3)OCO4)n2)cc1
Polymyxin B 1 µg/mL
  bacterial growth OD600: 0.184

## Cc1nc(N(C)C2CCCCC2)ncc1C(C)NC(=O)c1ccoc1 (stereo not drawn)
Polymyxin B 0.75 µg/mL
  bacterial growth OD600: 0.645

## CC(=O)c1cc(C(=O)N2CCc3onc(-c4ccc(F)c(F)c4)c3C2)cs1
Polymyxin B 0.75 µg/mL
  bacterial growth OD600: 0.783

## Cc1ccn(CC(=O)NCc2cccnc2Oc2cccc(C(F)(F)F)c2)n1
Polymyxin B 0.75 µg/mL
  bacterial growth OD600: 0.76

## Cc1ccc2nc(N3CCC(C(=O)NCCC(C)C)CC3)nc(C)c2c1
Polymyxin B 0.75 µg/mL
  bacterial growth OD600: 0.825

## O=C1O[C@@H]2CN(Cc3ccccn3)C[C@@H]2N1CCCc1ccc(F)cc1
Polymyxin B 0.75 µg/mL
  bacterial growth OD600: 0.875

## CO[C@H]1[C@H](NC(=O)c2ccncc2)c2ccccc2C12CCN(C(=O)c1ccc(CC(C)C)cc1)CC2
Polymyxin B 0.75 µg/mL
  bacterial growth OD600: 0.002

## O=C(NCCc1ccccn1)c1coc(COc2ccc(F)cc2)n1
Polymyxin B 1 µg/mL
  bacterial growth OD600: 0.991

## O=C(c1ccc(OC2CCN(Cc3ccccn3)CC2)cc1)N1CCCCC1CCO (stereo not drawn)
Polymyxin B 1 µg/mL
  bacterial growth OD600: 1.04

## CCOC(=O)C1(Cc2cccc(OC)c2)CCN(Cc2csc(C(C)=O)c2)CC1
Polymyxin B 1 µg/mL
  bacterial growth OD600: 0.752

## COc1cccc(-c2cnnc(N(C)Cc3nccn3C)n2)c1
Polymyxin B 0.75 µg/mL
  bacterial growth OD600: 0.75

## CC(=O)N1CCN(c2ccc(-c3nc(Cc4ccc(F)cc4)no3)cn2)CC1
Polymyxin B 0.75 µg/mL
  bacterial growth OD600: 0.239

## Cn1nc(C(=O)N2CCCC(CCC(=O)NCc3ccc(F)c(F)c3)C2)ccc1=O (stereo not drawn)
Polymyxin B 1 µg/mL
  bacterial growth OD600: 1.24

## COc1ccc(-c2nc(CN(C)Cc3ccc(C(F)(F)F)cc3)c(C)o2)c(OC)c1
Polymyxin B 0.75 µg/mL
  bacterial growth OD600: 0.434

## CCCNC(=O)NC1CC(=O)N(CCc2ccccc2)C1 (stereo not drawn)
Polymyxin B 1 µg/mL
  bacterial growth OD600: 0.942

## O=C(CCC1CCN(CC2CCOC2)CC1)Nc1ccc2c(c1)OCCO2 (stereo not drawn)
Polymyxin B 1 µg/mL
  bacterial growth OD600: 1.01

## O=C(NC1CCC1)C1CCC(=O)N(CCCN2CCOCC2)C1 (stereo not drawn)
Polymyxin B 1 µg/mL
  bacterial growth OD600: 0.865

## O=C(C1CCCC1)N1CCC2(CCCN(Cc3ccccc3F)C2=O)C1 (stereo not drawn)
Polymyxin B 1 µg/mL
  bacterial growth OD600: 1.02

## COCCn1c(CN2CCCCO2)cnc1S(=O)(=O)C1CCCCCC1
Polymyxin B 1 µg/mL
  bacterial growth OD600: 0.707

## CC1(C)C[C@@H]2C[C@@](C)(CN2C(=O)c2cn(Cc3ccc(F)cc3Cl)nn2)C1
Polymyxin B 1 µg/mL
  bacterial growth OD600: 0.008

## CCOC(=O)N1CCN(C(=O)c2cc(Cn3nc(C)cc3C)[nH]n2)CC1
Polymyxin B 0.75 µg/mL
  bacterial growth OD600: 0.831

## O=C1CCCN1CC(=O)N1CCc2[nH]nc(-c3ccccc3F)c2C1
Polymyxin B 0.75 µg/mL
  bacterial growth OD600: 0.814

## CN(Cc1nc(Cc2ccccc2F)no1)CC1Cc2ccccc2O1 (stereo not drawn)
Polymyxin B 1 µg/mL
  bacterial growth OD600: 0.881

## CN(CCc1ccccc1)C(=O)c1nc2sccn2c1CN1CCSCC1
Polymyxin B 1 µg/mL
  bacterial growth OD600: 0.75

## CSc1ncc(CN(C)CC2CCN(CCc3cccc(F)c3)CC2)cn1
Polymyxin B 1 µg/mL
  bacterial growth OD600: 0.935

## COc1cccc(OCc2nc(C(=O)NC3CCCCC3)co2)c1
Polymyxin B 1 µg/mL
  bacterial growth OD600: 0.939

## O=C(NC1CCCC1)c1ccc(N2CCC(NCc3ccc(Cl)s3)CC2)cc1
Polymyxin B 0.75 µg/mL
  bacterial growth OD600: 0.664
